PubChem BioAssay AID1259254 | NCATS – 2017
Screen: 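Finding genes that stop cells copying their DNA twice in one cycle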 (primary screen). Cell system: human HCT116 colorectal cancer cells. Knock-down reagent: single siRNA against human genes. Duration: 3 days. Measurement: 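Imaged Hoechst DNA stain sorts each cell into a cycle phase by DNA amount; per plate, G2 fraction set to 0% for non-targeting and 100% for GMNN siRNA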. Scale: G2 robust z-score and G2 cells, % of GMNN control: higher = more G2 cells, more excess DNA replication. Rule for the call: 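An siRNA counts as active if its G2 robust z-score lies at least 5 MADs above the screen median; here such calls match roughly 38% of GMNN control or more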.
In all, the deposit lists about 59,000 reagents; below is a random part of them. About 1,550 of them (2.6%) were called active. 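G2 share is only a proxy for re-replication; each gene was hit by three separate siRNAs, and active genes were retested.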 The numbers tell different reagents against one gene apart. Further read-outs or replicates are left out here. Not stated in the record: the amount of reagent.

SAXO1 (stabilizer of axonemal microtubules 1) #1
- G2 robust z-score: -0.215
- G2 cells, % of GMNN control: 1.46
- activity call: inactive

SAXO1 (stabilizer of axonemal microtubules 1) #2
- G2 robust z-score: -0.159
- G2 cells, % of GMNN control: 1.85
- activity call: inactive

SAXO1 (stabilizer of axonemal microtubules 1) #3
- G2 robust z-score: 0.0412
- G2 cells, % of GMNN control: 3.26
- activity call: inactive

SASS6 (SAS-6 centriolar assembly protein) #1
- G2 robust z-score: 3.06
- G2 cells, % of GMNN control: 24.5
- activity call: inactive

SASS6 (SAS-6 centriolar assembly protein) #2
- G2 robust z-score: 1.33
- G2 cells, % of GMNN control: 12.4
- activity call: inactive

SASS6 (SAS-6 centriolar assembly protein) #3
- G2 robust z-score: 2.12
- G2 cells, % of GMNN control: 17.9
- activity call: inactive

CNIH4 (cornichon family member 4) #1
- G2 robust z-score: -0.334
- G2 cells, % of GMNN control: 0.615
- activity call: inactive

CNIH4 (cornichon family member 4) #2
- G2 robust z-score: 2.95
- G2 cells, % of GMNN control: 23.7
- activity call: inactive

CNIH4 (cornichon family member 4) #3
- G2 robust z-score: -1.11
- G2 cells, % of GMNN control: -4.85
- activity call: inactive

LBX2 (ladybird homeobox 2) #1
- G2 robust z-score: -0.389
- G2 cells, % of GMNN control: 0.232
- activity call: inactive

LBX2 (ladybird homeobox 2) #2
- G2 robust z-score: 0.576
- G2 cells, % of GMNN control: 7.02
- activity call: inactive

LBX2 (ladybird homeobox 2) #3
- G2 robust z-score: -0.555
- G2 cells, % of GMNN control: -0.936
- activity call: inactive
